Reference: PubChem BioAssay AID504774 (Drosophila RNAi Screening Center, 2011)
The deposit covers about 23,000 reagents; this is an unselected part of those that have a named target and a result. 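Values are quantile-normalised luminescence on an arbitrary scale; higher means more cells surviving MMS.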 A plus sign joins genes that one reagent is predicted to hit.

Test: 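Fly genes whose loss alters survival after alkylation damage to DNA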 (primary screen)
Cell system: Drosophila Kc167 cells
Reagent: long dsRNA against Drosophila genes, about 0.25 µg dsRNA per well
Timing: about 6 days: 3 days knock-down, then 3 days with or without MMS
Conditions: methyl methanesulphonate 0.004% (w/v) for 3 days after knock-down
Measured: 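ATP-dependent luminescence as a measure of live cells in MMS-exposed wells, quantile normalised within each plate, with replicate values also given as a mean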
Direction: mean viability with MMS and viability with MMS: higher = more surviving cells after MMS

no.	gene	amplicon	mean viability with MMS	viability with MMS, replicate 1	viability with MMS, replicate 2
1	CG42824 + CG42823	DRSC13230	3.48e6	4.06e6	3.84e6
2	Sr-CIII	DRSC22262	3.42e6	3.95e6	3.87e6
3	MED22	DRSC18175	3.41e6	3.89e6	3.85e6
4	CG32459	DRSC11852	3.70e6	4.17e6	4.14e6
5	CG14695	DRSC14918	3.54e6	4.07e6	3.98e6
6	MsR2 + CG13802 (retired record)	DRSC08336	3.66e6	4.07e6	4.17e6
7	MsR2 + CG13802 (retired record)	DRSC08337	3.62e6	4.10e6	4.07e6
8	MsR2 + CG13802 (retired record)	DRSC22440	3.66e6	4.15e6	4.07e6
9	Nepl3	DRSC02681	3.49e6	4.09e6	3.77e6
10	tweek	DRSC02433	3.43e6	3.88e6	3.90e6
11	tweek	DRSC02434	3.41e6	3.88e6	3.85e6
12	tweek	DRSC02785	3.10e6	3.53e6	3.46e6
13	tweek	DRSC23133	3.35e6	3.88e6	3.73e6
14	Plod	DRSC10601	3.66e6	4.18e6	4.13e6
15	Plod	DRSC10602	3.58e6	4.01e6	4.09e6
16	CG4661	DRSC19910	3.55e6	4.05e6	3.99e6
17	Pp1-13C	DRSC20269	3.23e6	3.58e6	3.61e6
18	Pp1-13C	DRSC23305	3.62e6	4.20e6	4.02e6
19	HmgD	DRSC04619	2.98e6	3.54e6	2.55e6
20	CG15027	DRSC19608	3.48e6	3.90e6	3.98e6
21	CG34398	DRSC01052	3.32e6	3.77e6	3.71e6
22	CG34398	DRSC02510	3.45e6	3.82e6	3.99e6
23	CG34398	DRSC02511	3.59e6	3.99e6	4.19e6
24	CG34398	DRSC03228	3.40e6	3.61e6	4.06e6
25	CG34398	DRSC23293	3.75e6	4.27e6	4.23e6
26	Pgls	DRSC19769	3.57e6	4.02e6	4.07e6
27	CG11563	DRSC14327	3.65e6	4.09e6	4.19e6
28	CG6908	DRSC16131	3.49e6	4.01e6	3.93e6
29	CG30037	DRSC07305	3.60e6	4.08e6	3.81e6
30	CG3788	DRSC04418	3.61e6	4.10e6	4.11e6
31	Grip128	DRSC20167	3.65e6	4.01e6	4.23e6
32	laza	DRSC11661	3.66e6	4.08e6	4.19e6
33	laza	DRSC23330	3.62e6	4.17e6	4.05e6
34	TfIIFalpha	DRSC12608	2.90e6	3.57e6	3.54e6
35	Sgt	DRSC02812	3.26e6	3.84e6	3.49e6
36	fln	DRSC11346	3.61e6	4.10e6	4.08e6

6 entries from above, limited to “mean viability with MMS”.
Grip128 [DRSC20167]: 3.65e6
laza [DRSC11661]: 3.66e6
laza [DRSC23330]: 3.62e6
TfIIFalpha [DRSC12608]: 2.90e6
Sgt [DRSC02812]: 3.26e6
fln [DRSC11346]: 3.61e6

The list goes on:
no.	gene	amplicon	mean viability with MMS	viability with MMS, replicate 1	viability with MMS, replicate 2
37	CG31997	DRSC17105	3.60e6	4.04e6	4.08e6
38	CG8170	DRSC07087	3.53e6	4.04e6	3.98e6
39	CG3420	DRSC04995	3.37e6	3.77e6	3.80e6
40	CG30062	DRSC21737	3.43e6	3.88e6	3.96e6
41	CG7557	DRSC10878	3.53e6	4.09e6	3.90e6
42	CG14785	DRSC18604	3.39e6	3.88e6	3.84e6
43	Abd-B	DRSC14098	3.59e6	4.12e6	4.05e6
44	Abd-B	DRSC14337	3.62e6	4.08e6	4.16e6
45	CG13405	DRSC08310	3.67e6	4.08e6	4.18e6
46	Cpr11A	DRSC19861	3.53e6	3.98e6	4.02e6
47	CG14630	DRSC18166	3.61e6	4.12e6	4.06e6
48	CG14630	DRSC18653	3.39e6	3.95e6	3.75e6
49	CG31457	DRSC22935	3.66e6	4.01e6	4.21e6
50	CG34160	DRSC01131	3.60e6	3.96e6	4.18e6
51	CG9162 (retired record)	DRSC03151	3.76e6	4.35e6	4.23e6
52	CG40486	DRSC20619	3.49e6	3.98e6	3.93e6
53	CG11349	DRSC08179	3.68e6	4.27e6	4.08e6
54	CG14006	DRSC02338	3.53e6	4.04e6	3.96e6
55	CG6244	DRSC10609	3.64e6	4.00e6	4.23e6
56	Or85c	DRSC16766	3.59e6	4.05e6	4.11e6
57	CG8300	DRSC18426	3.41e6	3.60e6	3.97e6
58	CG8300	DRSC23231	3.44e6	3.88e6	3.94e6
59	mRpL37	DRSC16062	3.64e6	4.13e6	4.04e6
60	CG12320	DRSC14498	3.70e6	4.34e6	4.07e6
61	Acox3	DRSC03251	3.55e6	3.94e6	4.09e6
62	CG14022	DRSC02352	3.50e6	4.00e6	3.93e6
63	CG31872	DRSC02568	3.38e6	3.80e6	3.81e6
64	CG31872	DRSC02572	3.36e6	3.72e6	3.84e6
65	hkb	DRSC12377	3.47e6	4.02e6	4.26e6
66	CG18493	DRSC15334	3.63e6	4.04e6	4.19e6
67	CG2218	DRSC15428	3.64e6	4.10e6	4.13e6
68	Eig71Ed	DRSC11151	3.64e6	4.12e6	4.11e6
